Assay results from publication PMC4912218, “Targeted metabolomics of Gammarus pulex following controlled exposures to selected pharmaceuticals in water” (The Science of the Total Environment, 2016).
Where two headings read alike, the source gives them in different places.

What was measured:
in vivo = assay: in vivo
Description: From these toxicity profiles the NOAEL and the LOAEL were determined. Exposure experiments were performed in Pyrex® beakers, each containing 200 mL of AFW at 15 °C and ten adult animals (> 5 mg wet weight, ww). Live/dead animals were counted after 24 h by gently prodding and observing movement of appendages. The pharmaceutical concentrations tested were in the range of 0.01 to 250 mg L^− 1. […] Concentrations where 100, 50 and 0% of the animals died were repeated in duplicate or triplicate.

Thamnocephalus platyurus = conditions: ref Kim et al., 2009; cited from earlier work

SMILES	LC50 at 24 h (in vivo; Gammarus pulex) [µg/mL]	24 h- LC50 T. platyurus (Thamnocephalus platyurus) [µg/mL]	LC50 at 24 h (in vivo) [µg/mL]
CC(C)NCC(O)COc1ccc(CC(N)=O)cc1 (stereo not drawn) [Atenolol]	> 100	>100	
NS(=O)(=O)c1cc(C(=O)O)c(NCc2ccco2)cc1Cl [Furosemide]			> 73.1
